Assay results reported in publication PMC3254653.
These are yes or no findings as the source states them, for the method shown. In cells and extracts the contact can be indirect. Some entries that bind do so weakly or less than the wild type. Where a sequence is shown, tags or fusion partners need not be part of it.

Legend:
[1] = biological target: T1, Myc-Smo^SA (phosphorylation deficient form of Smo with three PKA sites mutated to Ala) (Drosophila) (UniProt P91682); test: co-IP; S2 cells transfected with Krz-YFP and Myc-tagged wild type Smo or Smo variants, treated with or without Hh-conditioned medium; Myc-Smo as bait, Western blot of lysates and immunoprecipitates
T1 sequence: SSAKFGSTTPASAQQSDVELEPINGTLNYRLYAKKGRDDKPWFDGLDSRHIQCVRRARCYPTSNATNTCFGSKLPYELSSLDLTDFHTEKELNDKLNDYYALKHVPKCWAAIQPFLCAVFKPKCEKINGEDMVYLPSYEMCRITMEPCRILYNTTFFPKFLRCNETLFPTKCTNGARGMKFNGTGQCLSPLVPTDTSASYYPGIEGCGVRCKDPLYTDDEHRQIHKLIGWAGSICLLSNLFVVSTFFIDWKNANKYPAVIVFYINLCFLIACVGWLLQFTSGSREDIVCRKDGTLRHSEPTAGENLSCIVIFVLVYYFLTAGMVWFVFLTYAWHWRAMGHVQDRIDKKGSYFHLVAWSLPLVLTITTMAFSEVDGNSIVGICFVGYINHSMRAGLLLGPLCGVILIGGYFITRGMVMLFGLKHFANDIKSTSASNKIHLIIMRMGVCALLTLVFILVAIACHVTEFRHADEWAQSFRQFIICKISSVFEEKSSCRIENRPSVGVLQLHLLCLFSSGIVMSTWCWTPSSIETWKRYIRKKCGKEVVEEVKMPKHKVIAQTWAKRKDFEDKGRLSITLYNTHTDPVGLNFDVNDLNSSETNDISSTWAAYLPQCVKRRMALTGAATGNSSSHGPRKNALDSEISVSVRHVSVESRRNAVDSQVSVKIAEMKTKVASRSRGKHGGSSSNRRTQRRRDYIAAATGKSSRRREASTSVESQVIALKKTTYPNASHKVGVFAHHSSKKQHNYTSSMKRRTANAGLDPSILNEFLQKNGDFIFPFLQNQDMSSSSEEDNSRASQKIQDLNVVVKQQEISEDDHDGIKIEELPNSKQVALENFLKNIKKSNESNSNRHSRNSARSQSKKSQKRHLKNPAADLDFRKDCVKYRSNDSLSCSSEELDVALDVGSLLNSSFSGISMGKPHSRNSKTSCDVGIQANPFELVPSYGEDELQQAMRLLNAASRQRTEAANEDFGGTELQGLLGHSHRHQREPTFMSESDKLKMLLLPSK

[2] = biological target: T2, Myc-tagged wild type Smoothened (Myc-Smo) (Drosophila) (UniProt P91682); test: as above
T2 sequence: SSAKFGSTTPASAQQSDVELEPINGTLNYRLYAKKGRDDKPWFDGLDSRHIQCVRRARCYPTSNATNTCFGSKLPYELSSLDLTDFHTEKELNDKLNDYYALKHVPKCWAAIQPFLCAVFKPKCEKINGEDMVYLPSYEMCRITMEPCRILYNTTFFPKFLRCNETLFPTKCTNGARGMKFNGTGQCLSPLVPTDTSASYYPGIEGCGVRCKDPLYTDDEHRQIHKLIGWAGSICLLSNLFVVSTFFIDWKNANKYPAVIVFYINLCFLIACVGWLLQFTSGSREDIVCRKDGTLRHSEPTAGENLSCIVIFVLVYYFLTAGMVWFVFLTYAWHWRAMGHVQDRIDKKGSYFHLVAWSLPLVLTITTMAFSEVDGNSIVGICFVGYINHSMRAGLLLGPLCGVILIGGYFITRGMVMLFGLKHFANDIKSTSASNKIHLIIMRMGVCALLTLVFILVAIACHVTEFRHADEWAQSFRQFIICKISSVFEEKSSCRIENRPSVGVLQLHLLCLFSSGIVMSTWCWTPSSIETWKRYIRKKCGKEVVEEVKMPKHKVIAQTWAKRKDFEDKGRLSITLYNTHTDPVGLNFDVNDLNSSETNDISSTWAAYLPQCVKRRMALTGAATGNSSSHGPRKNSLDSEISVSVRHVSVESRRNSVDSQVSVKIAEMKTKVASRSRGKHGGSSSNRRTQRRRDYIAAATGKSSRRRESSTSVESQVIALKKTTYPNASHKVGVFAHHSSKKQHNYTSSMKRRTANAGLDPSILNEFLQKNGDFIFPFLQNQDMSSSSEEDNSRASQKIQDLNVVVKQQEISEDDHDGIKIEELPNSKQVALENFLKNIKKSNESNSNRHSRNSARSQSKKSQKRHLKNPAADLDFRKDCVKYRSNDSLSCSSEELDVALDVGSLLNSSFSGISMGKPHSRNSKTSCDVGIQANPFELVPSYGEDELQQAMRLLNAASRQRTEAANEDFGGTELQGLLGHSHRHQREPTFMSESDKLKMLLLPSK

binding [1]: binds
binding [2]: binds
B1: C-terminally YFP-tagged Kurtz (Krz-YFP) (protein, UniProt Q9V393 1-470)
chain: MNGGGGGSGGANVSNGSSTNVTAAGSTGGGSAGDETGGDASSRRQATRVFKKSSSNGKITVYLGKRDFVDHVTHVDPIDGVVFIDPEYVKDRKVFGQVLAAFRYGREDLDVLGLTFRKDLYLAHEQIYPPMQLDRPMTRLQERLIKKLGPNAHPFYFEVPPYCPASVSLQPAPGDVGKSCGVDYELKAFVGENVEDKPHKRNSVRLTIRKVMYAPSKVGEQPSIEVSKEFMMKPNKIHLEATLDKELYHHGEKISVNVHVANNSNRTVKKIKVCVRQFADICLFSTAQYKSVVAEIESEDGCQVAPGFTLSKVFELCPLLANNKDKWGLALDGQLKHEDTNLASSTLITNPAQRESLGIMVHYKVKVKLLISSPLLNGDLVAELPFTLMHPKPEEEEHPLLGERSPRASLAGGGLPLVSMSDGETESATGGQDVPTTTNLIQLDDDEAQDDDIIFEDFARLRLKGAETEA
